From PubChem BioAssay AID504444 (National Center for Advancing Translational Sciences (NCATS), 2011)
Where “and” joins values, the source holds several entries; their conditions need not be identical. Equal entries are not always repeated. Among all 360,000 compounds or so, about 7,500 (2.1%) were called active. The shares of active, inactive and inconclusive entries below differ from those in the screen. The call rests on the fitted dose curve; in most records, active means well fitted inhibition curve with a large enough effect; inconclusive means small, poorly fitted or top-dose-only effect, or effect the other way; inactive means flat fitted curve, though single readings scatter. Potencies of inconclusive entries are doubtful fits and often do not repeat.

assay: Nrf2 qHTS screen for inhibitors; conditions: A549 ARE-Fluc reporter, luciferase luminescence, 18-24 h; activity change, negative = inhibition: at 46 µM (top of the series); further: nearly all actives have a fitted effect of over 60% in size
How it was run: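 Nrf2 function is reported as luminescence of an ARE-controlled luciferase in A549 cells. Compounds were tested at several concentrations, and a CellTiter-Fluor read on the same wells flagged cytotoxicity.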
On the % scale 0 is the no-effect control and ±100 the full control effect; potency means the concentration at half of the fitted maximal effect.

Compound | Potency | activity change, negative = inhibition
CC1C(=NO)C(C)C(c2ccccc2)NC1c1ccccc1 (stereo unspecified) | inconclusive: 29.1 µM [falling, single point] | 
CC(C)=CCc1c(O)c(CC=C(C)C)c2occ(-c3ccc(O)cc3)c(=O)c2c1O | inconclusive: 29.1 µM [falling, single point] | 
Cc1ncsc1CCOC(=O)c1ccc(N2CCOCC2)c([N+](=O)[O-])c1 |  | inactive: 6.95%
COc1cccc(/C=N/NC(=O)CSc2cccc3cccnc23)c1 | inconclusive: 29.1 µM [falling, single point] | 
CCOC(=O)CCCCCC(=O)Nc1ccc2c(c1)CC(=O)N([C@@H](C)CO)C[C@H](C)[C@@H](CN(C)C(=O)Nc1ccc3c(c1)OCO3)O2 | inconclusive: 25.9 µM [activator, partial curve, poor fit] | 
Cc1cccc(NC(=O)C2CCCN(S(=O)(=O)c3c(C)n[nH]c3C)C2)c1 (stereo unspecified) | inconclusive: 29.1 µM [falling, single point] | 
CCC(C(=O)Nc1ccccc1)n1nc(-c2cc(C)ccc2C)ccc1=O (stereo unspecified) |  | inactive: -16.5%
Cc1ccc(C)c(Cn2c3ccccc3c3cnn(CC(=O)NCc4ccccn4)c(=O)c32)c1 | inconclusive: 4.61 µM [falling, full curve, poor fit] | 
c1ccc(C[n+]2cccc(-c3ccccc3)c2)cc1 | active: 18.4 µM | 
O=C(Nc1ccc(F)cc1)C1COc2ccccc2O1 (stereo unspecified) | inconclusive: 18.4 µM [activator, single point] | 
C=CS(=O)(=O)N(Cc1ccc(Cl)c(Cl)c1)C[C@@H](O)CO | inconclusive: 18.4 µM [falling, partial curve, poor fit] | 
CSc1ccc(CCNC(=O)Cn2ncn3c(cc4ccccc43)c2=O)cc1 |  | inactive: 10.6%
Cc1ccccc1NC(=O)CSCc1nc(N)nc(Nc2ccccc2C)n1 |  | inactive: 6.39%
N#CCCNC(=O)Cn1c(COc2ccc(Cl)cc2)nc2ccccc21 | inconclusive: 0.146 µM [activator, full curve, poor fit] | 
CCO/C=N/Nc1nc(C(F)(F)F)nc2c1cnn2Cc1ccccc1 | active: 23.1 µM | 
CCC1(C)Cc2c(sc3nc(NC)n(C)c(=O)c23)CO1 (stereo unspecified) |  | inactive: -5.38%
CCOc1ccc(-n2c(=O)c3c4c(sc3n(CC(=O)NC(C)CC)c2=O)CCC4)cc1 (stereo unspecified) |  | inactive: 1.15%
CCOC(=O)c1ccc(N2C(=O)c3n[nH]c(-c4cccs4)c3C2c2cccc(OC)c2)cc1 (stereo unspecified) | active: 20.6 µM | 
COc1ccc(CC(=O)Nc2cc(-c3nc4cccnc4s3)ccc2C)cc1 | inconclusive: 0.366 µM [activator, partial curve, poor fit] | 
COc1ccc(/C=N/NC(=O)c2[nH]c3ccc(Br)cc3c2-c2ccccc2)cc1 | inconclusive: 0.411 µM [activator, partial curve, poor fit] | 
Cc1ccc(S(=O)(=O)N2CCN(C(=O)C3CCN(C(=O)c4ccc(F)cc4)CC3)CC2)c(C)c1 | inconclusive: 18.4 µM [falling, partial curve, poor fit] | 
CCSC1=NCCN1C(=O)C(C)(C)Oc1ccc(Cl)cc1 | inconclusive: 29.1 µM [falling, single point] | 

Compound | Potency | activity change, negative = inhibition
O=C(Cc1ccc(Cl)cc1)NCCc1cnc[nH]1 |  | inactive: 3.57%
Cn1c(SCC(=O)c2ccc3c(c2)OCO3)nnc1C1COc2ccccc2O1 (stereo unspecified) | inconclusive: 18.4 µM [falling, partial curve, poor fit] | 
CCCCCCSc1cc(-c2nc3cnccn3c2NCCCC)ccc1OC | inconclusive: 20.6 µM [falling, single point] | 
CCC1(CC)NC(=O)N(CC(=O)OCC(=O)NC(=O)c2ccccc2OC)C1=O |  | inactive: 1.86%
Oc1ccc(C[C@H]2CNC(=S)N2CC2CCCN2C[C@H](Cc2ccc(O)cc2)N2C[C@H](Cc3ccc(O)cc3)N(CC3CCCCC3)C2=S)cc1 (stereo partly specified) | active: 13 µM | 
O=C(CSc1cn(CCNC(=O)c2ccccc2F)c2ccccc12)Nc1ccc(F)cc1 | inconclusive: 23.1 µM [falling, single point] | 
COc1cccc(N2C(=O)CSC23C(=O)N(CC(=O)Nc2cccc(Cl)c2)c2ccccc23)c1 (stereo unspecified) | inconclusive: 14.6 µM [falling, partial curve] | 
COc1ccccc1Nc1cc(C)nc(Nc2ccccc2OC)n1 |  | inactive: -11.6%
COc1cccc(-c2nn(C)c3sc(C(=O)N4CCN(c5ccccc5)CC4)cc23)c1 | inconclusive: 8.2 µM [falling, partial curve, poor fit] | 
CCCn1nc(Oc2nc(N(C)C)nc(N(C)C)n2)ccc1=O | inconclusive: 9.2 µM [falling, partial curve, poor fit] | 
COc1ccc2[nH]c(=O)c(CN(C(=O)c3cccnc3)c3cccc(C)c3)cc2c1 | inconclusive: 25.9 µM [activator, single point] | 
CCOC(=O)Cc1csc(NC(=O)CSc2nnc(-n3nc(C)cc3C)c3ccccc23)n1 | inconclusive: 29.1 µM [falling, single point] | 
C/C(=N\NC(=O)c1nn(C)c(C)c1Br)c1ccc(NC(=O)C2CCCC2)cc1 |  | inactive: 7.8%
COc1cccc(-n2c(-c3ccco3)nc3c(cnn3-c3ccc(Cl)cc3)c2=O)c1 | inconclusive: 25.9 µM [falling, single point] | 
CCn1c(C)c(C)c2cc(C(=O)N3CCN(c4cccc(C)c4C)CC3)ccc21 | inconclusive: 16.4 µM [falling, single point] and inconclusive: 25.9 µM [falling, single point] | 
COC(=O)c1cc(NS(=O)(=O)c2ccc(NCc3cccnc3)c(N)c2)cc(C(=O)OC)c1 |  | inactive: -5.36%
COc1cccc(NC(=O)COc2ccc(C(=S)N3CCN(C)CC3)cc2OC)c1 | active: 13 µM | 
CCOc1ccc(OCCCCn2cnc3ccccc3c2=O)cc1 | inconclusive: 29.1 µM [falling, single point] | 
COc1ccc(NC(=O)c2ccc(Br)c(S(=O)(=O)N3CCOCC3)c2)cc1 | inconclusive: 20.6 µM [falling, single point] | 
CCOC(=O)c1cnn(-c2ccccc2)c1NC(=O)C(F)(F)C(F)(F)C(F)(F)F | inconclusive: 29.1 µM [falling, single point] | 
CCOc1ccc(CNC(=O)c2cc3c(s2)-c2ccccc2OC3)cc1 |  | inactive: -20.4%
CC1CC(C)CN(CCCNC(=O)c2ccc(CNS(=O)(=O)c3ccc(F)cc3)cc2)C1 (stereo unspecified) | inconclusive: 0.0041 µM [activator, full curve, poor fit] | 

Fetched by structure from the entries so far:
Compound | Potency | activity change, negative = inhibition
CCn1c(C)c(C)c2cc(C(=O)N3CCN(c4cccc(C)c4C)CC3)ccc21 | inconclusive: 16.4 µM [falling, single point] and inconclusive: 25.9 µM [falling, single point] | 
Cn1c(SCC(=O)c2ccc3c(c2)OCO3)nnc1C1COc2ccccc2O1 (stereo unspecified) | inconclusive: 18.4 µM [falling, partial curve, poor fit] | 
CCC1(CC)NC(=O)N(CC(=O)OCC(=O)NC(=O)c2ccccc2OC)C1=O |  | inactive: 1.86%
CCOc1ccc(OCCCCn2cnc3ccccc3c2=O)cc1 | inconclusive: 29.1 µM [falling, single point] | 
O=C(Cc1ccc(Cl)cc1)NCCc1cnc[nH]1 |  | inactive: 3.57%

(further entries)

Compound | Potency | activity change, negative = inhibition
COc1cc(C(=O)Nc2ccc(NC(=O)c3ccccc3Cl)nc2)cc(OC)c1OC | inconclusive: 16.4 µM [falling, single point] | 
Clc1cccc(Cl)c1CNc1ccc(N2CCCC2)cc1 | inconclusive: 23.1 µM [activator, single point] | 
CCCOc1ccc(CNC(=O)Cn2cc3c(n2)-c2c(oc(C(=O)N4CCOCC4)c2C)CC3)cc1 | inconclusive: 29.1 µM [falling, single point] | 
COC1CCCCC1NS(=O)(=O)c1ccc(Cl)cc1 (stereo unspecified) |  | inactive: 17.4%
CC(C)C(C(=O)NC1CCCC1)N(CC1CCCO1)C(=O)CNS(=O)(=O)c1ccccc1 (stereo unspecified) | inconclusive: 29.1 µM [activator, single point] | 
CCc1ccc(C2=Nn3c(nnc3-c3cccs3)SC2)cc1 | inconclusive: 13 µM [falling, partial curve, poor fit] | 
CNC1=C(N(C(C)=O)c2ccc(Br)cc2)C(=O)c2ccccc2C1=O | active: 16.4 µM | 
Cc1ccc(N(CC(=O)Nc2ccc3c(c2)OCCO3)S(=O)(=O)c2c(C)noc2C)cc1 |  | inactive: -27.9%
COc1ccc(NC(=O)NNC(=O)c2cc(C3CC3)nc3ccccc23)c(OC)c1 |  | inactive: -14.7%
COc1cc(CN(C)Cc2cc(=O)oc3cc(C)c(Cl)cc23)ccc1OC(F)F | inconclusive: 29.1 µM [falling, single point] | 
CC(C)(CC(=O)O)CC(=O)NCc1c(Cl)cccc1Oc1ccccc1 | inconclusive: 18.4 µM [falling, single point] | 
O=C(COCc1ccccc1)N[C@@H]1c2ccccc2CC[C@@H]1OCc1ccccc1 | inconclusive: 14.6 µM [falling, partial curve, poor fit] | 
CC1CCc2c(C(=O)NCc3cccnc3)csc2C1 (stereo unspecified) | inconclusive: 32.6 µM [falling, single point] | 
CC(C)C(c1nnnn1CC1CCCO1)N1CCN(C2CCCC2)CC1 (stereo unspecified) | inconclusive: 29.1 µM [activator, single point] | 
COc1ccccc1CNC(=O)Cc1ccc(OC)c(OC)c1 | inconclusive: 18.4 µM [falling, single point] | 
S=C(c1ccc(N2CCOCC2)cc1)N1CCOCC1 | inconclusive: 0.0065 µM [falling, full curve, poor fit] | 
CC(=O)c1sc(N/N=C\c2c(O)ccc3ccccc23)nc1C | inconclusive: 20.6 µM [activator, partial curve] | 
CCOc1ccccc1NC(=O)C(=O)c1cc(C)n(-c2ccc(F)cc2)c1C | inconclusive: 29.1 µM [activator, single point] | 
Cc1ccc(-c2cc(C(F)F)n3ncc(C(=O)N4CCCCC4c4cccnc4)c3n2)cc1 (stereo unspecified) | inconclusive: 20.6 µM [falling, partial curve, poor fit] | 
CCOc1ccc(/C=N/NC(=O)COc2ccccc2-c2ccccc2)cc1 | inconclusive: 32.6 µM [falling, single point] | 
CCS(=O)(=O)c1nc(S(=O)(=O)c2ccc(C)cc2)c(NC(C)c2ccccc2)s1 (stereo unspecified) |  | inactive: -8.8%
CCc1ccc2oc(-c3cccc(NC(=O)C(C)(C)Oc4ccc(Br)cc4)c3)nc2c1 | inconclusive: 9.2 µM [activator, partial curve, poor fit] | 
